Experimental data from article PMC11655674.

Legend:
[1] = molecular target: T1, 6xHis-CerM (Cereibacter sphaeroides WS8N) (UniProt Q3J1N9); assay: EMSA; conditions: 50-200 ng CerM, 10 mM Tris pH 7.5, 1 mM EDTA, 0.1 M KCl, 0.1 mM DTT, 5% glycerol, 0.10 mg/mL BSA, 20 min room temperature, 50 ng DNA
T1 sequence (looked up): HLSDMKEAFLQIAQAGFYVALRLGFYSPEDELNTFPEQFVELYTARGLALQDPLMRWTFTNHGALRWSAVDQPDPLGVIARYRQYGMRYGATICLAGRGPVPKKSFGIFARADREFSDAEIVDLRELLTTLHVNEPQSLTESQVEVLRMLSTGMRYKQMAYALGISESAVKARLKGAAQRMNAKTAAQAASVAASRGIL

[2] = molecular target: T2, GST-CerN (Cereibacter sphaeroides WS8N) (UniProt Q3J1P0); assay: EMSA; conditions: 10 mM Tris pH 7.5, 1 mM EDTA, 0.1 M KCl, 0.1 mM DTT, 5% glycerol, 0.10 mg/mL BSA, 20 min room temperature, 50 ng DNA, 50-200 ng CerM, 4% native gel in TAE pH 7.8, recombinant protein, residues 1-160, protein details: N-terminal GST (pGEX-4T-2), probe letters rebuilt from the primers and the genome
T2 sequence (looked up): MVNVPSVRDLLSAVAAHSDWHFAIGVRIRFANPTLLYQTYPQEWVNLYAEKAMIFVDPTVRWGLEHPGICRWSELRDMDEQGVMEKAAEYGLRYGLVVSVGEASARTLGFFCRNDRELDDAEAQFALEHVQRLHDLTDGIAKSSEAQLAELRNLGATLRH

[3] = 200 ng CerM, 4% native gel in TAE pH 7.8, recombinant protein, residues 21-219, probe letters rebuilt from the primers and the genome

Sequence: CCCGAATATTCGCGACTTGCAAAGTTTCGGCGGCGAATTCGCTGCAAATTGCATTGCAGAATGCAAAAGACCTCAGAGGCGAGTGACGTGTCTCCCGTGCTCCCGAGGGATGATCCACAGCGGCGGACGCCGAACGAACCCAGCTTGTATGAATGGACATATCCAAAAAGACAGGTTTGTTTCAAGACAAGTTTTTCTGGATGGAATTGGACGTCGGGCGGGGTTTTGGCACACAATATGCTTGTTATCCGGGCAGGGACAGCTGGAAGATTTACGGAGACATTTCATGAAACATCCCGTCGACGCCCAC (double strand) [14710 fragment A (310 bp)]
- binding result ([1]; two complexes, 4% native gel in TAE pH 7.8, recombinant protein, residues 21-219, probe letters rebuilt from the primers and the genome): binds
- binding result ([1]; with AHL from AM1 supernatant, 4% native gel in TAE pH 7.8, recombinant protein, residues 21-219, probe letters rebuilt from the primers and the genome): binds more weakly
- binding result ([1]; with culture supernatant extract of delta-cerI (no AHL), 4% native gel in TAE pH 7.8, recombinant protein, residues 21-219, probe letters rebuilt from the primers and the genome): binds
- binding result ([1]; with equimolar GST-CerN and AHL from AM1 supernatant (0.66 uL), 4% native gel in TAE pH 7.8, recombinant protein, residues 21-219, probe letters rebuilt from the primers and the genome): binds more weakly
- binding result ([1]; with equimolar GST-CerN and synthetic 3OH-C14-HSL, 4% native gel in TAE pH 7.8, recombinant protein, residues 21-219, probe letters rebuilt from the primers and the genome): binds more weakly
- binding result ([1]; with equimolar GST-CerN, no AHL, 4% native gel in TAE pH 7.8, recombinant protein, residues 21-219, probe letters rebuilt from the primers and the genome): binds
- binding result ([2]; no AHL): no binding
- binding result ([2]; with AHL): no binding

Sequence: CCCTCCCCTGATATCGGGAACTCGATCGCCTCGCGAAGCGTCTTCCGCACCTCGAAGGCAGGCCGGGACAGCCCCTGATCGGCACCCGCACCGCCGTCTGCGGCCGCGGCCCGACTGCAGGTTGCAGCTCAGCCCGATGGCCCGCAACCGGCGCGTGTAAACCGGGTCTTTTTAGACAGGTCGGGGTGGCGGATTGTTGACTCCATCATGTTGGCGTGAAATCTCACTATCAGGTGGGGCAAGAGGCTATTCGGATTAATCGTACAGCCTTTGGTATGGGTCTTCCGGTCGGTGGGCATTTTTACG (double strand) [17824 regulatory region (306 bp)]
- binding result [1, 3]: binds

Sequence: CGCCACATCCGTCGCCATCGCCACCAGCATGGTGCCCGCATGGAACATGCTTCTGCCTCCTTCGGAGAGCGGCTCCTGCGGCGCGCTCACGTCTCGATTTCGGAGAATTCCCCTCCTTCTGCAAGGGCGGAGCCATCCGCCGGAGGGCTGGCCTGTCGGTTTGGGCAGGTCGCGTTCTTCGCAGAAAGAGGTAAGAAGAACGCAGGGAAATTGCTTTGACTTCCCCCTGTTGCTCGTTCGCCGGAGATCCTCCATGCCGCAGTCCCATCACCGCGAAACCGCCCGTCTGGTTCGTCACCGGCGCTGGGTTCTCGGCCTGTCTC (double strand) [07465 regulatory region (323 bp)]
- binding result [1, 3]: binds

Sequence: GATATCAGATGCGCGAACCCAGAAGGGCGGTCAGATCGGTTTTTTCGGTCATGGGCGGGCTCCACGAAAGGCGGAAGGAACGGACATGAACACGCTGCTCGAACCAGGAATGCTGGTCCGGCATCCGGGGCAACCGGAGTGGGGGATGGGTCAGGTGCAATCCAACGTCAAAGGTCGGATCACGGTGAACTTCGAACACGCAGGCAAGGTCTTGATCGATGGCGGTCGGGTCGAGCTGCAACTTGTGCTTGATCTTCCGCACTGATCTAGCGACGTGTGGTTGCATATTTCAACCATGAATTGAGGGCATTTCGGCGCAGGGCGCCGCGCCTCCGGGGGCAGGAGCGACCCGGGCGACAGTTGCATCCGGCAGGGGCATTTCCTATGAAGCCCTGACCGTCCGGTGAGGGAGGCAAGGTCCGGGAATGATCGCCGACGACCCGCATCTGGAACTGAGGCTCGCCGCGTCCGAGCGCGATCTGCGCGCGGCCCAGCGGCTGCGCTATACGGTCTTCGTCGAGGAGCTCGGCGGCGACGGGGATCTCGTCGACCATGCAGAGCGGCTCGAGCGCGATGAGTTCGACGATCTCTGCGACCATCTCCTGCTGGATCC (double strand) [chpT control region (603 bp)]
- binding result [1, 3]: no binding

Sequence: GCCTGCAGCATGAGCCCCCGGGCGATCAGCACGATGGCCGCGAAGGTGAGCGCCACCATGGCGGCTTCGAGCCGCATGTCGAGGTCGGAGGCGAAGAGAGCGGTCACCAGGGCCCCGCCGGCCACGGCGAGCAGAAGCCAGTGCCTTGAGCGGAGACCTTCCGCCGCCCCCACGAGATCTGCTGACTGCCTGTGCACTGACATCCCCGAGCCGGATTCGCCCCGCGGACATTCGGCCCTGAAATCGTTAAGCACTGTTTAATCTGCGCGAGGATCCAGCTCGCAAAGCCCGGAAACTCAGCCGTTTCTCTGCAACAGGTCGAGGAAGAAGCCGTCGCCGCCATCGAGAGGGGTCAGTCGCAGCTGGTGCACCCGCGTCCAGCCGGAGGTCCGCTCGAGGAAAGCTCTAGACC (double strand) [cckA control region (396 bp)]
- binding result [1, 3]: no binding

Sequence: GCGAGCTCGTTTCCGGTCTTGGCGATTTGGGCCCGTCTCCTCGGAGGCGGGCCTTTTTCTTTTTGGCGTCATGGACTTTTGTCCGATGGCCAAAGGGATGGGATTACCGCAAAAGGCAGTTGCAGACAGGCGGATTCACCATTGCCAAAAAACGTGTTTGCTTCATGAGATGGTTGTCATAAAGCTAGCTTTGCGACGGCGTGGGGATCGCCGAATATCGAGCTTGTCCATCCCAAGCGATTTGCTGTGCACTGTTTCCCGAATGACGATAAATTCAAAAATCGATCTTGAAATCAGTCAACTCCGGCGCATGGCCACGGCAGGCTACTTTCTGGGCCTGCACGAGCTCGC (double strand) [gtaR regulatory region (337 bp)]
- binding result [1, 3]: binds more weakly

A negative result means that nothing was seen under these conditions. Where a protein sequence is shown, tags need not be part of it. For some of these results: The comparison behind a weaker result is the experiment's own reference, which may not be listed here. For some of these results: For at least one entry, the source does not settle the construct or the ends of the probe.
